This test in a line: qHTS Assay to Find Inhibitors of Chronic Active B-Cell Receptor Signaling. The settings on record: ABC-DLBCL IkBa-CBG/CBR reporter, luminescence ratio (green luciferase fused to IkBa over red control in TMD8 lymphoma cells), 4 h. A digest of the protocol: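 Compounds up to 46 uM were incubated four hours with TMD8 cells whose green CBG68 luciferase is fused to IkappaBalpha; red CBR luminescence normalised the signal, and concentration-effect curves were fitted to fusion, red and ratio data.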

[1] abbreviates: measured here: CBR red luminescence, cell number.
The mark [2] stands for this setting: measured here: IkBa-CBG green luminescence.

Some of the results follow. The main result of the screen is listed elsewhere. These columns were measured beside it and carry no call. The list favours compounds with an active or inconclusive main result. Potencies come from curve fits of mixed quality, noted in brackets.

As to `CC(=O)Oc1cccc(C(=O)Nc2cccc(C(=O)Nc3ccccc3C(=O)O)c2)c1`, the AC50 under setting [1] is 12.6 µM [falling, partial curve].

Turning to `Cc1cc(Nc2ccccc2)nn1C(=O)c1ccc(Cl)cc1`, the AC50 under setting [1] is 23.1 µM [rising, partial curve].

As to `COc1cccc(-c2cc(C(=O)NCC3CCCO3)on2)c1` (configuration not stated), the AC50 under setting [1] was 14.1 µM [falling, partial curve].

As to `Cc1cc2cc(CN(Cc3cccs3)Cc3nnnn3CC3CCCO3)c(=O)[nH]c2cc1C` (configuration not stated), under setting [1], the AC50 is 16.4 µM [falling, partial curve, poor fit].

Regarding `Brc1ccccc1OCCOc1cccc2cccnc12`, the AC50 under setting [1] is 0.651 µM [rising, full curve].

As to `COc1ccc(OC)c(C(c2nnnn2CC2CCCO2)N2CCN(C)CC2)c1` (configuration not stated), under setting [1], the AC50 was 29.1 µM [rising, single point].

Consider `O=C(O)c1ccc(-c2ccco2)n1Cc1ccccc1`, for which, under setting [1], the AC50 was 29.1 µM [falling, single point].

With `OC(CN1C2=NCCN2c2ccccc21)c1ccc2c(c1)OCO2` (configuration not stated), the AC50 under setting [1] was 22.4 µM [falling, single point].

For the molecule `c1ccc(CCc2ccccc2-c2nc(-c3ccccn3)no2)cc1`, the AC50 under setting [1] is 25.9 µM [rising, single point].

With `O=C(Cc1ccccc1)Nc1ccccc1N1CCCC1`, under setting [1], the AC50 was 35.5 µM [rising, partial curve, poor fit].

Consider `CCC(CC)NC(=O)Nc1ccccc1C(F)(F)F`, for which, under setting [1], the AC50 was 12.6 µM [rising, single point].

With `O=C(NCCSc1ccccc1)c1ccc(Br)cc1`, under setting [1], the AC50 is 29.1 µM [falling, single point].

In the case of `COc1cc(CC(=O)OCC(=O)c2ccc3c(c2)OCCO3)cc(OC)c1OC`, the AC50 is 14.6 µM [rising, partial curve, poor fit] under setting [1] and 9.2 µM [falling, partial curve] under setting [2].

In the case of `CCn1cc([N+](=O)[O-])c(C(=O)N2N=C(c3ccc(Cl)c(Cl)c3)CC2c2ccccc2O)n1` (configuration not stated), under setting [1], the AC50 was 35.5 µM [falling, single point].

`Cc1ccc(-n2c(O)c(C=Nc3ccccc3-c3n[nH]c(=S)[nH]c3=O)c3ccccc3c2=O)cc1C`: the AC50 under setting [1] was 35.5 µM [falling, single point].

With `O=C(NCc1cccs1)c1cc(-c2cccc(Cl)c2)on1`, the AC50 under setting [1] is 1 µM [falling, full curve, poor fit].

Take `Cc1noc(C)c1S(=O)(=O)N(C)C[C@H]1Oc2c(NC(=O)Nc3ccc(C(F)(F)F)cc3)cccc2C(=O)N([C@H](C)CO)C[C@@H]1C`: under setting [1], the half-maximal activity concentration (AC50) was 20.6 µM [falling, partial curve].

Turning to `O=C(Nc1nc2ccccc2[nH]1)c1cccc([N+](=O)[O-])c1`, under setting [1], the AC50 is 2 µM [falling, full curve].

For the molecule `CCN(CC)S(=O)(=O)c1cccc(NC2=NCC(C)S2)c1` (configuration not stated), under setting [1], the AC50 was 2.82 µM [rising, full curve, poor fit].

With `C/C(=N\NC(=O)c1ccc(NS(=O)(=O)c2cccs2)cc1)c1ccc(C(C)(C)C)cc1`, the AC50 under setting [1] is 8.2 µM [falling, partial curve].

Consider `Cc1ccc(S(=O)(=O)N2CCOCC2)cc1NC(=O)COC(=O)c1ccc(Br)cc1`, for which the AC50 under setting [1] is 16.4 µM [falling, single point].

Turning to `Cc1cc(C)cc(NC(=O)N2c3ccccc3NC(=O)CC2C)c1` (configuration not stated), the concentration at half-maximal activity (AC50) under setting [1] was 31.6 µM [falling, single point].

Turning to `COc1ccc(CCNC(=O)COC(=O)c2cc(OC)c(OC)cc2OC)cc1OC`, under setting [1], the AC50 is 35.5 µM [falling, single point].

Turning to `C/C(=N\NC(=O)COc1ccc(C(C)(C)C)cc1)c1ccc(OC(F)F)cc1`, the AC50 under setting [1] is 32.6 µM [rising, partial curve, poor fit].

For the molecule `CCOC(=O)c1sc(-c2cccc([N+](=O)[O-])c2)cc1N`, the AC50 under setting [1] was 10 µM [rising, partial curve].

In the case of `COc1cc(OC)cc(-c2c(-c3cccs3)c3cc(-c4ccc(CN5CCOCC5)cc4)ccc3n2C)c1`, the AC50 under setting [1] is 29.1 µM [falling, single point].

As for `CCOC(=O)C(=O)C1=CN(Cc2ccccc2)C=C(C#N)C1`, under setting [1], the AC50 is 35.5 µM [falling, single point].

Regarding `CCOC(=O)Cc1csc(NC(=O)Nc2ccc(Cl)cc2)n1`, the half-maximal activity concentration (AC50) under setting [1] was 8.91 µM [falling, partial curve, poor fit].

In the case of `COc1ccc(/C=N/OC/C(O)=C(\C#N)c2nc3ccccc3[nH]2)cc1`, the half-maximal activity concentration (AC50) under setting [1] was 17.8 µM [falling, single point].

On to `COC(=O)C1=C(C)OC(N)=C(C#N)C1c1ccccc1F` (configuration not stated), for which, under setting [1], the AC50 was 35.5 µM [falling, single point].

`Cc1ccc(-c2csc(N=C(N)N)n2)c(C)c1`: the half-maximal activity concentration (AC50) under setting [2] was 11.2 µM [falling, single point].

With `COc1ccc(-c2c(=O)n(OCc3nc4ccccc4[nH]3)c3ccccc3[n+]2[O-])cc1`, the AC50 under setting [1] was 22.4 µM [falling, single point].

`O=C(CNC(=O)c1ccccc1)OCc1nc2ccccc2s1`: under setting [1], the AC50 was 2.91 µM [rising, full curve].

`NS(=O)(=O)c1ccc(N=Nc2c(=O)[nH]n3c(=O)c4c([nH]c23)CCCC4)cc1`: under setting [1], the AC50 was 14.1 µM [falling, partial curve, poor fit].

For `Cc1ccc(C(=O)N/N=C/c2sc(=O)n(Cc3cccc(C(=O)O)c3)c2Cl)cc1`, the AC50 under setting [1] is 7.08 µM [falling, partial curve].

Turning to `COC(=O)c1ccc(NC(=O)c2c(NCc3cccc(F)c3)sc3c2CCCC3)cc1`, under setting [1], the AC50 was 7.94 µM [falling, partial curve].

Regarding `O=C(NC1CCCN(Cc2ccc(Cl)cc2)C1)C1CCC1` (configuration not stated), the AC50 under setting [1] was 35.5 µM [rising, single point].

In the case of `N/C(Cc1cccs1)=N\OC(=O)COc1ccc(Cl)cc1Cl`, under setting [1], the AC50 is 11.6 µM [rising, partial curve, poor fit].

As for `COC(=O)c1ccccc1NC(=O)CN(C)S(=O)(=O)c1ccc(OC)c(C)c1`, the AC50 under setting [1] was 32.6 µM [falling, partial curve, poor fit].

Turning to `C=CCn1c(SCC(=O)N2CC(C)OC(C)C2)nnc1-c1ccncc1` (configuration not stated), the AC50 under setting [1] was 20.6 µM [rising, single point].

For the molecule `CC(C)OC(=O)CSc1nnc(-c2ccc(Cl)cc2Cl)o1`, the AC50 under setting [1] is 2.31 µM [falling, partial curve, poor fit].
